These results are taken from publication PMC11110260.

Sequences of proteins named here, by UniProt entry; tags and fusion partners are left off.
UniProt Q92466: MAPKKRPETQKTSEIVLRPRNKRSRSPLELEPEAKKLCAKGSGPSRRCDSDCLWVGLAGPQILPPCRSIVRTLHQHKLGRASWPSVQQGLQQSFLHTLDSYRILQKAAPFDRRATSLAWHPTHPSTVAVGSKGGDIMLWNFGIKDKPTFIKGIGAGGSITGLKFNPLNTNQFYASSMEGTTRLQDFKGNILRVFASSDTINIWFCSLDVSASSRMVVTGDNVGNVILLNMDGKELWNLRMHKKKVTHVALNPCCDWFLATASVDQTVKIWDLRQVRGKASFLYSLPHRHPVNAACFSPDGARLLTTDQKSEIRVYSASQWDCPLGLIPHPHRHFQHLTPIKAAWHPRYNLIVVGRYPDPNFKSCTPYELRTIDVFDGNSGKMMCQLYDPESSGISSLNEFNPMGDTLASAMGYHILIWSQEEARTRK
UniProt Q04206: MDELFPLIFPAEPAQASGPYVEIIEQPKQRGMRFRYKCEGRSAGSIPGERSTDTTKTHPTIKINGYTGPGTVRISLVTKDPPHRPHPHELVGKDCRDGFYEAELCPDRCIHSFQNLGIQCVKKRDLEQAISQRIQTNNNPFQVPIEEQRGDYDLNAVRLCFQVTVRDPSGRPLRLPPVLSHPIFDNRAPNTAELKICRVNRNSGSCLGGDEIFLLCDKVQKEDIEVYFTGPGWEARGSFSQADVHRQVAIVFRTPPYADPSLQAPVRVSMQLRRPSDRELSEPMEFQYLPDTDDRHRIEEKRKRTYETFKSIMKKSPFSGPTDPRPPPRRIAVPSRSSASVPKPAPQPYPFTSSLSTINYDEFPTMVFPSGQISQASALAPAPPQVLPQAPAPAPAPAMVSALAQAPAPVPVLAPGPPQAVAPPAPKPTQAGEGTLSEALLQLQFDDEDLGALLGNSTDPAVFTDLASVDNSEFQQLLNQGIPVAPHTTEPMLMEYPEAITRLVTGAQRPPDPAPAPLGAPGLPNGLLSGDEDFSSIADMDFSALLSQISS

These are yes or no findings as the source states them, for the method shown. In cells and extracts the contact can be indirect. Some entries that bind do so weakly or less than the wild type.

In this test the target is DDB2^Wt (DNA-Damaged Binding protein 2, wild type), His-tagged (UniProt Q92466). Description: pull-down; lysates of HEK293 stable clones 7 d after UV-C irradiation (hypotonic buffer: 10 mM Tris-HCl pH 7.4, 2.5 mM MgCl2, 0.5% NP-40, 10 mM imidazole; sonicated), incubated with Ni-NTA resin overnight at 4 °C; His-tagged DDB2 held on the resin; washed with 50 mM Tris-HCl pH 7.4; Western blot with anti-NF-kB p65 and anti-DDB2. For orientation: A western blot detects proteins with antibodies after separation by electrophoresis.

Consider “NF-kB (detected with anti-NF-kB p65) (from UniProt Q04206 1-551)”, for which the binding entry was “binds”.
